Where “and” joins values, the source holds several entries; their conditions need not be identical. Identical values can stand only once. Counter-ions that a name gives are not always drawn. ± gives the standard deviation of the averaged measurements. This is one part of the list. Repeats are few or missing, and single values can be far off.
Tested on: RAW 264.7
Assay: HMGB1-induced TNF-alpha production relative to HMGB1-stimulated control; higher = more TNF-alpha secretion (less inhibition)
Settings: stimulus: HMGB1 5 ug/ml, 18 h
[1] = compound concentration: 1 ug/ml

Row | Compound | HMGB1-induced TNF-alpha production (compound concentration: 3 uM) | HMGB1-induced TNF-alpha production [1] [%]
1 | Nc1nc(Cl)nc2c1ncn2[C@H]1C[C@H](O)[C@@H](CO)O1 [Cladribine] | 130% | –
2 | N[C@@H](Cc1cc(I)c(Oc2cc(I)c(O)c(I)c2)c(I)c1)C(=O)O [L-Thyroxine sodium salt hydrate] | – | 73.2
3 | N[C@@H](Cc1cc(I)c(Oc2cc(I)c(O)c(I)c2)c(I)c1)C(=O)O [L-thyroxine] | 94.8% | –
4 | N=C(N)NC(=O)Cc1c(Cl)cccc1Cl [Guanfacine] | 124% | –
5 | N=C(N)NC(=O)Cc1c(Cl)cccc1Cl | 93.4% | –
6 | N=C(N)NC(=O)Cc1c(Cl)cccc1Cl [Guanfacine hydrochloride] | 69.5 ± 14% | –
7 | CN1C[C@H](O)[C@@H](O)[C@H](O)[C@H]1CO [N-Methyl-1-deoxynojirimycin] | 83.5% | –
8 | O=c1cnn([C@@H]2O[C@H](CO)[C@@H](O)[C@H]2O)c(=O)[nH]1 [6-Azauridine] | – | 72.5
9 | O=c1cnn([C@@H]2O[C@H](CO)[C@@H](O)[C@H]2O)c(=O)[nH]1 | 78% | –
10 | C=C1C[C@@]23CC[C@H]4[C@@](C)(CCC[C@@]4(C)C(=O)O)[C@@H]2CC[C@]1(O)C3 [Steviol] | 113% | –
11 | CN1C(=O)CC(c2ccccc2)C1=O (stereo not given) [Phensuximide] | 94.5% | –
12 | COc1ccccc1N1CCN(CCN(C(=O)C2CCCCC2)c2ccccn2)CC1 | 104% | –
13 | Nc1ccn([C@@H]2O[C@H](CO)[C@@H](O)C2(F)F)c(=O)n1 [Gemcitabine] | 117 ± 16% | –
14 | CC1CNc2c(cccc2S(=O)(=O)N[C@@H](CCCNC(=N)N)C(=O)N2CC[C@@H](C)C[C@@H]2C(=O)O)C1 (stereo not given in full) | 95.2% | –
15 | CC1CNc2c(cccc2S(=O)(=O)N[C@@H](CCCNC(=N)N)C(=O)N2CC[C@@H](C)C[C@@H]2C(=O)O)C1 (stereo not given in full) [Argatroban] | 106 ± 14% | –
16 | CN(C)CCN(Cc1ccccc1)c1ccccn1 [Tripelennamine hydrochloride] | 106% | –
17 | CN(C)CCN(Cc1ccccc1)c1ccccn1 | 95.1% and 112% | –
18 | C=CC1=C(C)c2cc3[nH]c(cc4nc(cc5[nH]c(cc1n2)c(C)c5CCC(=O)O)C(CCC(=O)O)=C4C)c(C)c3C=C [Protoporphyrin IX disodium] | 38.5% | –

Row | Compound | HMGB1-induced TNF-alpha production (compound concentration: 3 uM) | HMGB1-induced TNF-alpha production [1] [%]
19 | C=CC1=C(C)c2cc3[nH]c(cc4nc(cc5[nH]c(cc1n2)c(C)c5CCC(=O)O)C(CCC(=O)O)=C4C)c(C)c3C=C | 79.9% | –
20 | N[C@H](CO)Cc1cnc[nH]1 [L(-)-Histidinol dihydrochloride] | – | 65.1
21 | CC(=O)O[C@@]12CO[C@@H]1C[C@H](O)[C@@]1(C)C(=O)[C@H](O)C3=C(C)[C@@H](OC(=O)[C@H](O)[C@@H](NC(=O)OC(C)(C)C)c4ccccc4)C[C@@](O)([C@@H](OC(=O)c4ccccc4)[C@H]21)C3(C)C [Docetaxel] | 101 ± 9.9% | –
22 | CC(=O)O[C@@]12CO[C@@H]1C[C@H](O)[C@@]1(C)C(=O)[C@H](O)C3=C(C)[C@@H](OC(=O)[C@H](O)[C@@H](NC(=O)OC(C)(C)C)c4ccccc4)C[C@@](O)([C@@H](OC(=O)c4ccccc4)[C@H]21)C3(C)C | 104% | –
23 | OC[C@H]1O[C@@H](Oc2ccc3cc(Br)ccc3c2)[C@H](O)[C@@H](O)[C@H]1O [6-Bromo-2-naphthyl-beta-D-galactopyranoside] | – | 78.5
24 | O=C(OC[C@H]1O[C@@H](n2ccc(=O)[nH]c2=O)[C@H](OC(=O)c2ccccc2)[C@@H]1OC(=O)c1ccccc1)c1ccccc1 [2',3',5'-Tri-O-benzoyluridine] | – | 62.8
25 | Nc1ncnc2c1[nH]c(=S)n2C1OC(CO)C(O)C1O (stereo not given) | – | 86.6
26 | Cc1cccc(-c2cc(=O)c3cc(C)ccc3o2)c1 [3',6-Dimethylflavone] | – | 67.1
27 | Nc1ncnc2c1ncn2[C@@H]1O[C@H](CO)[C@@H](O)[C@H]1O | 92.2% | –
28 | Nc1ncnc2c1ncn2[C@@H]1O[C@H](CO)[C@@H](O)[C@H]1O [Adenosine] | 92.7% | –
29 | Clc1ccc(CSC(Cn2ccnc2)c2ccc(Cl)cc2Cl)cc1 (stereo not given) [Sulconazole nitrate] | 106% | –
30 | Clc1ccc(CSC(Cn2ccnc2)c2ccc(Cl)cc2Cl)cc1 (stereo not given) | 62.5% | –
31 | C[n+]1cc2c3c(ccc2c2ccc4cc5c(cc4c21)OCO5)OCO3 [Sanguinarine chloride] | 20.6% | –
32 | C[n+]1cc2c3c(ccc2c2ccc4cc5c(cc4c21)OCO5)OCO3 | 40.2 ± 42% | –
33 | C[C@]12CC[C@@H]3c4ccc(O)cc4CC[C@H]3[C@@H]1CC[C@@H]2O [beta-Estradiol] | 77.1% | –
34 | C[C@]12CC[C@@H]3c4ccc(O)cc4CC[C@H]3[C@@H]1CC[C@@H]2O [Estradiol-17 beta] | 62.6% | –
35 | C[C@]12CC[C@@H]3c4ccc(O)cc4CC[C@H]3[C@@H]1CC[C@@H]2O [Estradiol] | 87.3% | –

From the supplement of paper PMC3682954
